Test results published in paper PMC5823975.
These are yes or no findings as the source states them, for the method shown. Binding seen in cells or lysates may run through a third protein. Some binding calls cover weakened binding; strength is not graded here.

The chains behind the UniProt entries cited, without tags or fusion partners. Where a name states a change or a piece, a line headed by the entry shows the natural chain unless it says otherwise.
UniProt Q62210: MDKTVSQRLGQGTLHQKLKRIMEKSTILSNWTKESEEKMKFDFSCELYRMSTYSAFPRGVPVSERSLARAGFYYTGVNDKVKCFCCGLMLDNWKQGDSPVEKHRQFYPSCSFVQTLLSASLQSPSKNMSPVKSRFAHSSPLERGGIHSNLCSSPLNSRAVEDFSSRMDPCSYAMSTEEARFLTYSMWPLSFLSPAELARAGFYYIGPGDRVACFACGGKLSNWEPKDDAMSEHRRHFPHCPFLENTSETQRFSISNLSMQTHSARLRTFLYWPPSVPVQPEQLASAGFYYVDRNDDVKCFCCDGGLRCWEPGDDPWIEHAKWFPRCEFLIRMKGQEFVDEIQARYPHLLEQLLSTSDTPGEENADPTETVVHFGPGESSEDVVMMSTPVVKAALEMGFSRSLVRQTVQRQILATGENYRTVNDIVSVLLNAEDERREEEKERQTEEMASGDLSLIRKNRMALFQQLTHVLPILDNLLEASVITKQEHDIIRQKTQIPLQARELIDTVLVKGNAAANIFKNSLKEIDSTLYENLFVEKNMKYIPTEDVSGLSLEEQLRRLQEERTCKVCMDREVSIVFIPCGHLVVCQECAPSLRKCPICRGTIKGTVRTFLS

B1: TRAF2 (endogenous, MEFs) (protein, UniProt P39429 1-501)
chain: MAAASVTSPGSLELLQPGFSKTLLGTRLEAKYLCSACKNILRRPFQAQCGHRYCSFCLTSILSSGPQNCAACVYEGLYEEGISILESSSAFPDNAARREVESLPAVCPNDGCTWKGTLKEYESCHEGLCPFLLTECPACKGLVRLSEKEHHTEQECPKRSLSCQHCRAPCSHVDLEVHYEVCPKFPLTCDGCGKKKIPRETFQDHVRACSKCRVLCRFHTVGCSEMVETENLQDHELQRLREHLALLLSSFLEAQASPGTLNQVGPELLQRCQILEQKIATFENIVCVLNREVERVAVTAEACSRQHRLDQDKIEALSNKVQQLERSIGLKDLAMADLEQKVSELEVSTYDGVFIWKISDFTRKRQEAVAGRTPAIFSPAFYTSRYGYKMCLRVYLNGDGTGRGTHLSLFFVVMKGPNDALLQWPFNQKVTLMLLDHNNREHVIDAFRPDVTSSSFQRPVSDMNIASGCPLFCPVSKMEAKNSYVRDDAIFIKAIVDLTGL
B2: RIPK1 (endogenous, mouse cells), Q60855 1-656 (protein)
chain: MQPDMSLDNIKMASSDLLEKTDLDSGGFGKVSLCYHRSHGFVILKKVYTGPNRAEYNEVLLEEGKMMHRLRHSRVVKLLGIIIEEGNYSLVMEYMEKGNLMHVLKTQIDVPLSLKGRIIVEAIEGMCYLHDKGVIHKDLKPENILVDRDFHIKIADLGVASFKTWSKLTKEKDNKQKEVSSTTKKNNGGTLYYMAPEHLNDINAKPTEKSDVYSFGIVLWAIFAKKEPYENVICTEQFVICIKSGNRPNVEEILEYCPREIISLMERCWQAIPEDRPTFLGIEEEFRPFYLSHFEEYVEEDVASLKKEYPDQSPVLQRMFSLQHDCVPLPPSRSNSEQPGSLHSSQGLQMGPVEESWFSSSPEYPQDENDRSVQAKLQEEASYHAFGIFAEKQTKPQPRQNEAYNREEERKRRVSHDPFAQQRARENIKSAGARGHSDPSTTSRGIAVQQLSWPATQTVWNNGLYNQHGFGTTGTGVWYPPNLSQMYSTYKTPVPETNIPGSTPTMPYFSGPVADDLIKYTIFNSSGIQIGNHNYMDVGLNSQPPNNTCKEESTSRHQAIFDNTTSLTDEHLNPIRENLGRQWKNCARKLGFTESQIDEIDHDYERDGLKEKVYQMLQKWLMREGTKGATVGKLAQALHQCCRIDLLNHLIRASQS

Key:
[1] = target: cIAP1 (endogenous, mouse cells) (mouse (endogenous in MEFs and MDFs)) (UniProt Q62210); test: pull-down; biotinylated SMAC mimetic used to purify IAPs from lysates of cIAP2^-/- and cIAP1^UBAmut MEFs; TRAF2 by immunoblot
[2] = target: cIAP1^UBAmut (mouse cIAP1 M396A F398A) (mouse) (UniProt Q62210); test: as above
[3] = target: RIPK3 (endogenous, mouse BMDMs) (mouse (endogenous in BMDMs)), Q9QZL0; test: proximity ligation; primary BMDMs of cIAP2^-/- and cIAP1^UBAmut animals, 1 ng/mL TNF, RIPK1 and RIPK3 antibodies, Duolink kit, confocal microscope; settings: remark: other sources report otherwise

Row | Binder | binding [1] | binding [2] | binding [3]
1 | B1 | binds | binds | –
2 | B2 | – | – | binds
